{
  "source": "the supplement of paper PMC8728848",
  "experiment_in_all_cases": "glycan array binding signal (z-score within array); higher = stronger binding",
  "conditions_in_all_cases": "glycan notation: IUPAC condensed, linker removed",
  "key": {"[1]": {"target": "Gal(b1-4)GlcNAc(b1-3)Gal(b1-4)GlcNAc(b1-3)Gal(b1-4)GlcNAc(b1-2)Man(a1-3)[Gal(b1-4)GlcNAc(b1-3)Gal(b1-4)GlcNAc(b1-3)Gal(b1-4)GlcNAc(b1-2)Man(a1-6)]Man(b1-4)GlcNAc(b1-4)GlcNAc", "summary_of_the_method": "(§1)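 The Consortium for Functional Glycomics database supplied 3228 glycan arrays, of which those lacking an available protein sequence were dropped. The binding signal, a within-array Z-score, was averaged across arrays of the same protein sequence and across linkers. Negative scores can be read as non-binding.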"}, "[2]": {"target": "Gal(b1-4)GlcNAc(b1-3)Gal(b1-4)GlcNAc(b1-3)Gal(b1-4)GlcNAc(b1-2)Man(a1-3)[Gal(b1-4)GlcNAc(b1-3)Gal(b1-4)GlcNAc(b1-3)Gal(b1-4)GlcNAc(b1-2)Man(a1-6)]Man(b1-4)GlcNAc(b1-4)[Fuc(a1-6)]GlcNAc", "summary_of_the_method": "as §1"}, "[3]": {"target": "Gal(b1-4)GlcNAc(b1-3)Gal(b1-4)GlcNAc(b1-3)Gal(b1-4)GlcNAc(b1-2)[Gal(b1-4)GlcNAc(b1-3)Gal(b1-4)GlcNAc(b1-3)Gal(b1-4)GlcNAc(b1-6)]Man(a1-6)[Gal(b1-4)GlcNAc(b1-3)Gal(b1-4)GlcNAc(b1-3)Gal(b1-4)GlcNAc(b1-2)Man(a1-3)]Man(b1-4)GlcNAc(b1-4)[Fuc(a1-6)]GlcNAc", "summary_of_the_method": "as §1"}, "[4]": {"target": "Gal(b1-4)GlcNAc(b1-3)Gal(b1-4)GlcNAc(b1-3)Gal(b1-4)GlcNAc(b1-3)Gal(b1-4)GlcNAc(b1-2)Man(a1-3)[Gal(b1-4)GlcNAc(b1-3)Gal(b1-4)GlcNAc(b1-3)Gal(b1-4)GlcNAc(b1-3)Gal(b1-4)GlcNAc(b1-2)Man(a1-6)]Man(b1-4)GlcNAc(b1-4)GlcNAc", "summary_of_the_method": "as §1"}, "[5]": {"target": "Gal(b1-4)GlcNAc(b1-3)Gal(b1-4)GlcNAc(b1-3)Gal(b1-4)GlcNAc(b1-3)Gal(b1-4)GlcNAc(b1-2)Man(a1-3)[Gal(b1-4)GlcNAc(b1-3)Gal(b1-4)GlcNAc(b1-3)Gal(b1-4)GlcNAc(b1-3)Gal(b1-4)GlcNAc(b1-2)Man(a1-6)]Man(b1-4)GlcNAc(b1-4)[Fuc(a1-6)]GlcNAc", "summary_of_the_method": "as §1"}, "[6]": {"target": "Gal(b1-4)GlcNAc(b1-3)Gal(b1-4)GlcNAc(b1-3)Gal(b1-4)GlcNAc(b1-3)Gal(b1-4)GlcNAc(b1-2)[Gal(b1-4)GlcNAc(b1-3)Gal(b1-4)GlcNAc(b1-3)Gal(b1-4)GlcNAc(b1-3)Gal(b1-4)GlcNAc(b1-6)]Man(a1-6)[Gal(b1-4)GlcNAc(b1-3)Gal(b1-4)GlcNAc(b1-3)Gal(b1-4)GlcNAc(b1-3)Gal(b1-4)GlcNAc(b1-2)Man(a1-3)]Man(b1-4)GlcNAc(b1-4)[Fuc(a1-6)]GlcNAc", "summary_of_the_method": "as §1"}, "[7]": {"target": "Gal(b1-4)GlcNAc(b1-3)Gal(b1-4)GlcNAc(b1-3)Gal(b1-4)GlcNAc(b1-3)Gal(b1-4)GlcNAc(b1-3)Gal(b1-4)GlcNAc(b1-2)Man(a1-3)[Gal(b1-4)GlcNAc(b1-3)Gal(b1-4)GlcNAc(b1-3)Gal(b1-4)GlcNAc(b1-3)Gal(b1-4)GlcNAc(b1-3)Gal(b1-4)GlcNAc(b1-2)Man(a1-6)]Man(b1-4)GlcNAc(b1-4)GlcNAc", "summary_of_the_method": "as §1"}, "[8]": {"target": "Gal(b1-4)GlcNAc(b1-3)Gal(b1-4)GlcNAc(b1-3)Gal(b1-4)GlcNAc(b1-3)Gal(b1-4)GlcNAc(b1-3)Gal(b1-4)GlcNAc(b1-2)Man(a1-3)[Gal(b1-4)GlcNAc(b1-3)Gal(b1-4)GlcNAc(b1-3)Gal(b1-4)GlcNAc(b1-3)Gal(b1-4)GlcNAc(b1-3)Gal(b1-4)GlcNAc(b1-2)Man(a1-6)]Man(b1-4)GlcNAc(b1-4)[Fuc(a1-6)]GlcNAc", "summary_of_the_method": "as §1"}, "[9]": {"target": "Gal(b1-4)GlcNAc(b1-3)Gal(b1-4)GlcNAc(b1-3)Gal(b1-4)GlcNAc(b1-3)Gal(b1-4)GlcNAc(b1-3)Gal(b1-4)GlcNAc(b1-2)[Gal(b1-4)GlcNAc(b1-3)Gal(b1-4)GlcNAc(b1-3)Gal(b1-4)GlcNAc(b1-3)Gal(b1-4)GlcNAc(b1-3)Gal(b1-4)GlcNAc(b1-6)]Man(a1-6)[Gal(b1-4)GlcNAc(b1-3)Gal(b1-4)GlcNAc(b1-3)Gal(b1-4)GlcNAc(b1-3)Gal(b1-4)GlcNAc(b1-3)Gal(b1-4)GlcNAc(b1-2)Man(a1-3)]Man(b1-4)GlcNAc(b1-4)[Fuc(a1-6)]GlcNAc", "summary_of_the_method": "as §1"}, "[10]": {"target": "Gal(b1-4)GlcNAc(b1-3)Gal(b1-4)GlcNAc(b1-3)Gal(b1-4)GlcNAc(b1-3)Gal(b1-4)GlcNAc(b1-3)Gal(b1-4)GlcNAc(b1-3)Gal(b1-4)GlcNAc(b1-2)Man(a1-3)[Gal(b1-4)GlcNAc(b1-3)Gal(b1-4)GlcNAc(b1-3)Gal(b1-4)GlcNAc(b1-3)Gal(b1-4)GlcNAc(b1-3)Gal(b1-4)GlcNAc(b1-3)Gal(b1-4)GlcNAc(b1-2)Man(a1-6)]Man(b1-4)GlcNAc(b1-4)GlcNAc", "summary_of_the_method": "as §1"}, "[11]": {"target": "Gal(b1-4)GlcNAc(b1-3)Gal(b1-4)GlcNAc(b1-3)GalNAc", "summary_of_the_method": "as §1"}, "[12]": {"target": "Gal(b1-4)GlcNAc(b1-3)Gal(b1-4)GlcNAc(b1-3)[Gal(b1-4)GlcNAc(b1-3)Gal(b1-4)GlcNAc(b1-6)]GalNAc", "summary_of_the_method": "as §1"}, "[13]": {"target": "Gal(b1-4)GlcNAc(b1-3)Gal(b1-4)GlcNAc(b1-6)[Gal(b1-3)]GalNAc", "summary_of_the_method": "as §1"}, "[14]": {"target": "Gal(b1-4)GlcNAc(b1-3)Gal(b1-4)[Fuc(a1-3)]GlcNAc(b1-3)Gal(b1-4)[Fuc(a1-3)]GlcNAc", "summary_of_the_method": "as §1"}, "[15]": {"target": "Gal(b1-4)GlcNAc(b1-3)GalNAc", "summary_of_the_method": "as §1"}, "[16]": {"target": "Gal(b1-4)GlcNAc(b1-3)[Fuc(a1-3)GlcNAc(b1-6)]Gal(b1-4)Glc", "summary_of_the_method": "as §1"}, "[17]": {"target": "Gal(b1-4)GlcNAc(b1-3)[Gal(b1-4)GlcNAc(b1-6)]Gal(b1-4)GlcNAc", "summary_of_the_method": "as §1"}, "[18]": {"target": "Gal(b1-4)GlcNAc(b1-3)[GlcNAc(b1-6)]Gal(b1-4)GlcNAc", "summary_of_the_method": "as §1"}, "[19]": {"target": "Gal(b1-4)GlcNAc(b1-6)Gal(b1-4)GlcNAc", "summary_of_the_method": "as §1"}},
  "note": "The other results are listed elsewhere or left out.",
  "data": [
    {"binder": "Vd7LysM (Verticillium dahliae) (protein) RRGPEPKYPPAAGTSSYCSYWVDYEGDKSCSRVLEDNVVVLKDFARWNPTVGADCSGIKAGNSYCVEAFGEPEPIEVTTTTRAATTTTQPTATTTTFANGIATPQPTQSGMVTNCNKFHWIAEGVSCSQVISFQKITLADFVKWNPSVKSDCSGMWAGVNVCVGVVGSSTDTAKPTTTAPSNGVVTPQPTQPSMVTNCNKFHWIAKGVTCQQVISYQKISLADFVKWNPSVLSDCSGMWAEVQVCVGVIGSTPTTLATTTTTAGNGVSTPLPTQPGMVTNCAKFHWVAKGVTCNQIYSFQKITLEQFVSYNPTVKSDCSGMQAEVQVCVGLIAGTTPTTTRPPTTTAPGNGVSTPQPTQPGMVTNCAKFHWVAKGVTCNQIYSFQKITLEQFVSFNPTVKSDCTGMQAEVNVCVGLIGGNPTPTQTGNGIATPTPIQPGMVSNCKKFHWIAQGVTCQQVISFQKITLADFVKWNTGVGSDCRTMWAETNVCVGV", "values": [
      {"measurement": "glycan array binding signal (z-score)", "setting": "[1]", "result": 1.19},
      {"measurement": "glycan array binding signal (z-score)", "setting": "[2]", "result": 0.652},
      {"measurement": "glycan array binding signal (z-score)", "setting": "[3]", "result": 1.49},
      {"measurement": "glycan array binding signal (z-score)", "setting": "[4]", "result": 0.781},
      {"measurement": "glycan array binding signal (z-score)", "setting": "[5]", "result": 1.47},
      {"measurement": "glycan array binding signal (z-score)", "setting": "[6]", "result": 1.72},
      {"measurement": "glycan array binding signal (z-score)", "setting": "[7]", "result": 0.932},
      {"measurement": "glycan array binding signal (z-score)", "setting": "[8]", "result": -0.061},
      {"measurement": "glycan array binding signal (z-score)", "setting": "[9]", "result": 4.04},
      {"measurement": "glycan array binding signal (z-score)", "setting": "[10]", "result": 1.02},
      {"measurement": "glycan array binding signal (z-score)", "setting": "[11]", "result": -0.501},
      {"measurement": "glycan array binding signal (z-score)", "setting": "[12]", "result": 0.928},
      {"measurement": "glycan array binding signal (z-score)", "setting": "[13]", "result": -0.892},
      {"measurement": "glycan array binding signal (z-score)", "setting": "[14]", "result": -0.604},
      {"measurement": "glycan array binding signal (z-score)", "setting": "[15]", "result": 0.361},
      {"measurement": "glycan array binding signal (z-score)", "setting": "[16]", "result": -0.148},
      {"measurement": "glycan array binding signal (z-score)", "setting": "[17]", "result": -0.52},
      {"measurement": "glycan array binding signal (z-score)", "setting": "[18]", "result": -0.948},
      {"measurement": "glycan array binding signal (z-score)", "setting": "[19]", "result": 0.495}
    ]}
  ]
}
